{"source": "PubChem BioAssay AID540276", "about": "(National Center for Advancing Translational Sciences (NCATS), 2011)", "note": "In all, about 300,000 compounds went through this assay and about 5,400 (1.8%) were called active. Inconclusive means that the source gave no clear call. Such entries were picked first, then a sample of the others. The call rests on the fitted dose curve; tested in HEK293 cells. Potencies of inconclusive entries are doubtful fits and often do not repeat. On the % scale 0 is the no-effect control and ±100 the full control effect; potency means the concentration at half of the fitted maximal effect."}
{"experiment": "qHTS for inhibitors of binding or entry into cells for Marburg Virus", "conditions": "Marburg virus pseudotyped entry inhibition, cell reporter; activity change, negative = inhibition: at 37.8 µM (top of the series) unless noted"}
{"smiles": "Cc1cc(C)c(S(=O)(=O)NCCc2ccccc2)c(C)c1", "Potency": "inconclusive: 25.1 µM [inhibitor, single point]"}
{"smiles": "CCOC(=O)c1c(NC(=O)Cn2nnc3ccccc32)sc2c1CCC(C)C2", "note": "(centres undefined)", "Potency": "inconclusive: 22.4 µM [inhibitor, single point]"}
{"smiles": "c1ccc(C(c2ccccc2)c2noc(CN3CCC(c4ccncc4)CC3)n2)cc1", "Potency": "inconclusive: 6.31 µM [activator, single point]"}
{"smiles": "COc1ccc(OC)c(NC(=O)C(=O)NNC(=O)c2cccs2)c1", "activity change, negative = inhibition": "inactive: 19.9%"}
{"smiles": "COc1cccc(-c2cc(C(=O)Nc3nc4ccccc4s3)c3ccccc3n2)c1", "Potency": "inconclusive: 16.4 µM [inhibitor, partial curve, poor fit]"}
{"smiles": "CCCCCn1c(=O)c(C(=O)NCc2ccncc2)c(O)c2ccccc21", "Potency": "inconclusive: 11.2 µM [inhibitor, partial curve, poor fit]"}
{"smiles": "COc1ccc(-n2nc(C(=O)NCC(=O)Nc3cc(Cl)c(OC)cc3OC)c3ccccc3c2=O)cc1", "Potency": "inconclusive: 4.47 µM [inhibitor, full curve]"}
{"smiles": "CCOc1ccc(S(=O)(=O)N(C(=O)c2ccncc2)c2ccc3oc(C)c(C(=O)OC)c3c2)cc1", "Potency": "active: 10 µM"}
{"smiles": "CCCCCCCCOc1ccc(C2OC34CCCCC3C(C#N)(C#N)C2(C#N)C(=N)O4)cc1", "note": "(centres undefined)", "Potency": "inconclusive: 6.31 µM [activator, single point]"}
{"smiles": "CCOC(=O)c1nn(-c2ccc3ccccc3c2)cc1O", "Potency": "inconclusive: 15.8 µM [inhibitor, single point]"}
{"smiles": "Cc1ccc(N(CN2CCCC2=O)C(=O)c2ccc(C)c(C)c2)cc1", "activity change, negative = inhibition": "inactive: -0.247%"}
{"smiles": "O=C(CCS(=O)(=O)c1ccc(Cl)cc1)Nc1cccc(S(=O)(=O)N2CCCCCC2)c1", "Potency": "inconclusive: 12.6 µM [inhibitor, partial curve, poor fit]"}
{"smiles": "O=C(c1ccc(S(=O)(=O)Cc2cc(F)ccc2F)c([N+](=O)[O-])c1)N1CCCCC1", "Potency": "inconclusive: 3.55 µM [inhibitor, partial curve, poor fit]"}
{"smiles": "CCN(C(=O)COC(=O)c1cc([N+](=O)[O-])ccc1N1CCOCC1)C1CCS(=O)(=O)C1", "note": "(centres undefined)", "activity change, negative = inhibition": "inactive: 13.6%"}
{"smiles": "CCN(C(=O)COC(=O)c1cc2c(s1)CCCC2)c1c(N)n(Cc2ccccc2)c(=O)[nH]c1=O", "activity change, negative = inhibition": "inactive: -1.68% [at 46.1 µM]"}
{"smiles": "Cn1c(CCCNC(=O)c2ccccc2)nc2ccccc21", "Potency": "inconclusive: 1.16 µM [activator, partial curve, poor fit]"}
{"smiles": "CSc1cccc(CN2CCC(CO)(Cc3cccc(C(F)(F)F)c3)CC2)c1", "Potency": "inconclusive: 17.8 µM [inhibitor, single point]"}
{"smiles": "Cc1ccc(S(=O)(=O)Cc2ccc(C(=O)N3CCN(Cc4ccccc4)CC3)o2)cc1", "activity change, negative = inhibition": "inactive: 2.77%"}
{"smiles": "CCOC(=O)C1CCN(CC(=O)Nc2c(C(=O)OC)n(C)c3cccc(C)c23)CC1", "Potency": "inconclusive: 2.82 µM [activator, partial curve, poor fit]"}
{"smiles": "CC1(C)NC(=O)N(CC(O)CN(Cc2ccccc2)Cc2ccccc2)C1=O", "note": "(centres undefined)", "Potency": "inconclusive: 25.9 µM [activator, single point]"}
{"smiles": "COc1ccc(-c2cc(C(=O)Nc3ccc(C(N)=O)cc3)c3ccccc3n2)cc1OC", "Potency": "inconclusive: 10 µM [inhibitor, partial curve, poor fit]"}
{"smiles": "COc1ccc(C(=O)OCC(=O)NC2CC2)cc1F", "Potency": "inconclusive: 12.6 µM [activator, single point]"}
{"smiles": "Cc1ccc(-c2cc(C(=O)NCCCN3CCOCC3)c3ccccc3n2)cc1", "activity change, negative = inhibition": "inactive: -6.79%"}
{"smiles": "O=S(=O)(Nc1ccc(-c2cn3cccnc3n2)cc1)c1ccccc1", "activity change, negative = inhibition": "inactive: -24.2% [at 46.1 µM]"}
{"smiles": "COc1cccc(NC(=O)C(CCSC)NC(=O)C2CCC(C)CC2)c1", "note": "(centres undefined)", "activity change, negative = inhibition": "inactive: 2.95% [at 46.1 µM]"}
{"smiles": "O=C(c1cc(COc2ccc(F)cc2Cl)on1)N1CCC(c2ccncc2)CC1", "Potency": "inconclusive: 8.91 µM [inhibitor, partial curve, poor fit]"}
{"smiles": "COc1ccccc1OCC#CCNC1CCCCC1C", "note": "(centres undefined)", "Potency": "inactive"}
{"smiles": "COC(=O)c1cc(=O)n(Cc2ccc(OC)cc2)c(=NCc2ccc(OC)cc2)s1", "Potency": "inconclusive: 10 µM [activator, single point]"}
{"smiles": "COc1ccc(CN2CCOCCOCCN(Cc3ccc(OC)cc3)CCOCCOCC2)cc1", "Potency": "inconclusive: 11.2 µM [inhibitor, partial curve, poor fit]"}
{"smiles": "CC(C)CN(CCCNC(=O)c1cn(C)c2ccc(S(=O)(=O)N(C)C3CCCCC3)cc2c1=O)CC(C)C", "activity change, negative = inhibition": "inactive: 3.6% [at 46.1 µM]"}
{"smiles": "Cc1cc(C)cc(N(C(=O)c2csnn2)C(C(=O)NC(C)(C)C)c2cccs2)c1", "note": "(centres undefined)", "Potency": "inconclusive: 23.1 µM [inhibitor, partial curve, poor fit]"}
{"smiles": "COc1cccc(C(=O)NC(C)c2cccc3ccccc23)c1OC", "note": "(centres undefined)", "Potency": "active: 5.62 µM"}
{"smiles": "C/C(=N\\Nc1ccccn1)c1ccc(C#N)cc1", "activity change, negative = inhibition": "inactive: -1.84% [at 46.1 µM]"}
{"smiles": "Cc1ccc(-c2nc3ccccc3s2)cc1S(=O)(=O)N1CCCC1", "Potency": "inconclusive: 0.184 µM [inhibitor, single point]"}
{"smiles": "COc1ccccc1CNC(=O)c1ccc2nc3[nH]c4ccccc4c3nc2c1", "Potency": "inconclusive: 15.8 µM [inhibitor, single point]"}
{"smiles": "Cc1ccccc1-c1nnn(CC(=O)N2CCN(S(=O)(=O)c3ccc(Cl)cc3)CC2)n1", "Potency": "inconclusive: 10 µM [inhibitor, partial curve, poor fit]"}
{"smiles": "O=C(/C=C(\\O)c1ccccc1)C(=O)NNC(=O)c1ccccc1[N+](=O)[O-]", "activity change, negative = inhibition": "inactive: 18.2% [at 46.1 µM]"}
{"smiles": "CCC(CC)C(=O)N1CCN(Cc2ccc3c(c2)OCO3)CC1", "Potency": "inconclusive: 20 µM [inhibitor, single point]"}
{"smiles": "Cc1cccc(OC(=O)c2cc(-c3ccc(Cl)cc3)on2)c1C", "Potency": "inconclusive: 2.51 µM [activator, partial curve, poor fit]"}
{"smiles": "O=C(COC(=O)c1ccc([N+](=O)[O-])o1)NCc1ccccc1", "activity change, negative = inhibition": "inactive: 10.6%"}
{"smiles": "Cc1cc2ccccc2n2c(SCC(=O)Nc3ccc(S(=O)(=O)N4CCCCC4)cc3)nnc12", "Potency": "inconclusive: 35.5 µM [inhibitor, single point]"}
{"smiles": "N/C(=N\\OC(=O)c1cccc(Cl)c1)c1ccccn1", "Potency": "active: 3.66 µM"}
{"smiles": "Cc1ccc(OCCNC(=O)c2cncc(Br)c2)cc1C", "activity change, negative = inhibition": "inactive: 8.62%"}
{"smiles": "COc1ccc(NC(=O)Nc2ccc(F)cc2F)cc1", "Potency": "inconclusive: 1.58 µM [activator, partial curve, poor fit]"}
{"smiles": "CSc1nc(C)c(CCOC(=O)c2cccc(Cl)c2)c(=O)[nH]1", "activity change, negative = inhibition": "inactive: -5.56%"}
{"smiles": "O=C(NCc1ccco1)c1ccc2c(c1)N(Cc1ccccc1F)C(=O)c1ccccc1S2=O", "note": "(centres undefined)", "activity change, negative = inhibition": "inactive: -3.33% [at 46.1 µM]"}
{"smiles": "CCCCC1S/C(=N/N=C/c2ccco2)NC1=O", "note": "(centres undefined)", "Potency": "inconclusive: 12.6 µM [activator, single point]"}
{"smiles": "CCNC(=O)COC(=O)COc1ccc(Cl)cc1C", "activity change, negative = inhibition": "inactive: 20.1%"}
{"smiles": "c1ccc(-c2cc(-c3ccc(N4CCOCC4)cc3)nc3ccccc23)cc1", "Potency": "inconclusive: 1.78 µM [activator, partial curve, poor fit]"}
{"smiles": "CC(C)NC(=S)N/N=C/c1cccnc1", "Potency": "inconclusive: 3.98 µM [activator, single point]"}
{"smiles": "O=C(CSc1nnc(NC(=O)c2ccccc2F)s1)Nc1ccccc1F", "activity change, negative = inhibition": "inactive: -3.49% [at 46.1 µM]"}
{"smiles": "COc1ccc2sc(N(CCCN(C)C)C(=O)c3ccc(C(=O)c4ccccc4)cc3)nc2c1", "Potency": "inconclusive: 31.6 µM [inhibitor, single point]"}
{"smiles": "COc1ccc(NC(=O)C(=O)NCC(c2ccco2)N2CCc3ccccc32)cc1", "note": "(centres undefined)", "Potency": "inconclusive: 0.562 µM [inhibitor, partial curve, poor fit]"}
{"smiles": "COc1ccc(C(=O)Oc2cc(/C=N/NS(=O)(=O)c3ccccc3)ccc2OC)cc1", "activity change, negative = inhibition": "inactive: 11.2%"}
{"smiles": "O=C(O)c1cccc(N2C(=O)CSC2c2c(F)cccc2Cl)c1", "note": "(centres undefined)", "Potency": "inconclusive: 0.112 µM [activator, full curve, poor fit]"}
{"smiles": "CC(C)(C)c1ccc(C(=O)N2CCN(CCNC(=O)C(=O)NCc3ccc(Cl)cc3)CC2)cc1", "Potency": "inconclusive: 11.2 µM [inhibitor, partial curve, poor fit]"}
{"smiles": "CCOC(=O)c1c(-c2ccc(C)cc2)csc1NC(=O)CCSc1nnc2ccccn12", "Potency": "inconclusive: 35.5 µM [inhibitor, single point]"}
{"smiles": "CCOCCn1ccc2c(OCC(=O)Nc3cc(OC)ccc3OC)cccc2c1=O", "Potency": "inconclusive: 35.5 µM [inhibitor, single point]"}
{"smiles": "CN1NC(=O)CC1c1ccccc1", "note": "(centres undefined)", "activity change, negative = inhibition": "inactive: 14.7% [at 46.1 µM]"}
{"smiles": "CCOC(=O)c1cnc2c(-c3ccccc3)cnn2c1N", "Potency": "inconclusive: 0.461 µM [activator, partial curve, poor fit]"}
{"smiles": "Cc1ccc(C)c(CSC2=NCCN2C(=O)Cc2ccc([N+](=O)[O-])cc2)c1", "Potency": "inconclusive: 5.62 µM [activator, single point]"}
{"smiles": "Cc1ccc(NC(=O)CCC(=O)c2cccs2)c(Br)c1", "activity change, negative = inhibition": "inactive: 0.277% [at 46.1 µM]"}
{"smiles": "CCCn1c(SCC(=O)Nc2cccc(S(=O)(=O)NC3=NCCCCC3)c2)nc2ccccc2c1=O", "Potency": "inconclusive: 35.5 µM [inhibitor, partial curve, poor fit]"}
{"smiles": "S=C1NCCc2ccc(Cl)cc2C1c1ccccc1Cl", "note": "(centres undefined)", "Potency": "inconclusive: 17.8 µM [inhibitor, single point]"}
{"smiles": "COC(=O)[C@@H]1C[C@@]23C(=NN=C(SC)C2Nc2ccccc23)N1C(C)=O", "note": "(some centres undefined)", "activity change, negative = inhibition": "inactive: -22.9% [at 14.2 µM]"}
{"smiles": "CCOC(=O)c1c(NC(=O)/C=C\\C(=O)O)sc(C)c1-c1ccccc1", "activity change, negative = inhibition": "inactive: -22.6% [at 46.1 µM]"}
{"smiles": "CC1CCN(c2nc3c(c(=O)n(C)c(=O)n3C)n2Cc2ccccc2)CC1", "activity change, negative = inhibition": "inactive: -23.4%"}
{"smiles": "CCCn1cnc2c(SCc3ccccc3)nc(N)nc21", "Potency": "inconclusive: 35.5 µM [inhibitor, single point]"}
{"smiles": "CC(C)(CCl)C(=O)Nc1ccc(OC(F)(F)F)cc1", "activity change, negative = inhibition": "inactive: 6.78% [at 46.1 µM]"}
